Assay [1] deals with T1, Flag-tagged WT FBXW8 (human) (UniProt Q8N3Y1).
T1 sequence: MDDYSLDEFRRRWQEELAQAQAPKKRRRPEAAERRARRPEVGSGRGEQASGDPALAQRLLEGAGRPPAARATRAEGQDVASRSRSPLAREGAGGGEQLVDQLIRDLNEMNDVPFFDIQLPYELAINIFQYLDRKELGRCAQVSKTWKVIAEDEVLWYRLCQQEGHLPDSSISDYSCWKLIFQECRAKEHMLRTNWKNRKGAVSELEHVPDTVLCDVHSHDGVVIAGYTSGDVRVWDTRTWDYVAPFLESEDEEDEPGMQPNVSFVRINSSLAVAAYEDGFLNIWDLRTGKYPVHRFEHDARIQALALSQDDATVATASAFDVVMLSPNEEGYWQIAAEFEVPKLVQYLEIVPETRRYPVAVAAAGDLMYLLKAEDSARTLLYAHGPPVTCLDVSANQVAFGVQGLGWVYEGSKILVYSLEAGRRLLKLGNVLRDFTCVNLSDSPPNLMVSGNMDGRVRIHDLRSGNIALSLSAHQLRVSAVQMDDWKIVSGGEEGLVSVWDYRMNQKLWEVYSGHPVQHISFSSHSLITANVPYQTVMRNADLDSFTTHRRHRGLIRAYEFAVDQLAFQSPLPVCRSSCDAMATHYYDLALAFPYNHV
The assay is described as follows: co-IP; T98G cells transfected with empty, Flag-tagged WT FBXW8 or ΔF FBXW8 plasmid; precipitated with Flag antibody; blotted for cyclin D1, SKP1, CUL1, CUL7, RBX1 and Flag.

Chains of the proteins cited; added tags and fusions are not shown. Lines headed by an entry give the natural chain unless they say otherwise; changes in a name come on top. A line that says so, or that is headed by a name, gives the form on record, which may keep a tag or linker.
UniProt P24385: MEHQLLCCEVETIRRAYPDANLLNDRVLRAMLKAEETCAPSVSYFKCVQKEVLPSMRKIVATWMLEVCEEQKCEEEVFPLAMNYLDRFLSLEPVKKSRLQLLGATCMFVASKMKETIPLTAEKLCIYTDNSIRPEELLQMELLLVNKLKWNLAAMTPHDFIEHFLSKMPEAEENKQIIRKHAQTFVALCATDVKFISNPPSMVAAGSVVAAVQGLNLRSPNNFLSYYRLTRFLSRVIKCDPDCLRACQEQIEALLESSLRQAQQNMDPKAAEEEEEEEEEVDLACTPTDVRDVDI
HA-tagged ΔD cyclin D1 (complete deletion of the D-domain) (P24385, form named): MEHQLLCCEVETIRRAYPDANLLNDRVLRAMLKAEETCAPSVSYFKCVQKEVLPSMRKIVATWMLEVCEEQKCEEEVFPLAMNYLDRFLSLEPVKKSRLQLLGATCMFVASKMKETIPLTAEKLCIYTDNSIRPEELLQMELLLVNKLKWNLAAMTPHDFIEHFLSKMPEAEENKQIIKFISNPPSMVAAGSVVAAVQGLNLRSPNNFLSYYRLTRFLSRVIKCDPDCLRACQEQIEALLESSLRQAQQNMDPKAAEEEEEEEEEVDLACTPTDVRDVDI
UniProt Q14999: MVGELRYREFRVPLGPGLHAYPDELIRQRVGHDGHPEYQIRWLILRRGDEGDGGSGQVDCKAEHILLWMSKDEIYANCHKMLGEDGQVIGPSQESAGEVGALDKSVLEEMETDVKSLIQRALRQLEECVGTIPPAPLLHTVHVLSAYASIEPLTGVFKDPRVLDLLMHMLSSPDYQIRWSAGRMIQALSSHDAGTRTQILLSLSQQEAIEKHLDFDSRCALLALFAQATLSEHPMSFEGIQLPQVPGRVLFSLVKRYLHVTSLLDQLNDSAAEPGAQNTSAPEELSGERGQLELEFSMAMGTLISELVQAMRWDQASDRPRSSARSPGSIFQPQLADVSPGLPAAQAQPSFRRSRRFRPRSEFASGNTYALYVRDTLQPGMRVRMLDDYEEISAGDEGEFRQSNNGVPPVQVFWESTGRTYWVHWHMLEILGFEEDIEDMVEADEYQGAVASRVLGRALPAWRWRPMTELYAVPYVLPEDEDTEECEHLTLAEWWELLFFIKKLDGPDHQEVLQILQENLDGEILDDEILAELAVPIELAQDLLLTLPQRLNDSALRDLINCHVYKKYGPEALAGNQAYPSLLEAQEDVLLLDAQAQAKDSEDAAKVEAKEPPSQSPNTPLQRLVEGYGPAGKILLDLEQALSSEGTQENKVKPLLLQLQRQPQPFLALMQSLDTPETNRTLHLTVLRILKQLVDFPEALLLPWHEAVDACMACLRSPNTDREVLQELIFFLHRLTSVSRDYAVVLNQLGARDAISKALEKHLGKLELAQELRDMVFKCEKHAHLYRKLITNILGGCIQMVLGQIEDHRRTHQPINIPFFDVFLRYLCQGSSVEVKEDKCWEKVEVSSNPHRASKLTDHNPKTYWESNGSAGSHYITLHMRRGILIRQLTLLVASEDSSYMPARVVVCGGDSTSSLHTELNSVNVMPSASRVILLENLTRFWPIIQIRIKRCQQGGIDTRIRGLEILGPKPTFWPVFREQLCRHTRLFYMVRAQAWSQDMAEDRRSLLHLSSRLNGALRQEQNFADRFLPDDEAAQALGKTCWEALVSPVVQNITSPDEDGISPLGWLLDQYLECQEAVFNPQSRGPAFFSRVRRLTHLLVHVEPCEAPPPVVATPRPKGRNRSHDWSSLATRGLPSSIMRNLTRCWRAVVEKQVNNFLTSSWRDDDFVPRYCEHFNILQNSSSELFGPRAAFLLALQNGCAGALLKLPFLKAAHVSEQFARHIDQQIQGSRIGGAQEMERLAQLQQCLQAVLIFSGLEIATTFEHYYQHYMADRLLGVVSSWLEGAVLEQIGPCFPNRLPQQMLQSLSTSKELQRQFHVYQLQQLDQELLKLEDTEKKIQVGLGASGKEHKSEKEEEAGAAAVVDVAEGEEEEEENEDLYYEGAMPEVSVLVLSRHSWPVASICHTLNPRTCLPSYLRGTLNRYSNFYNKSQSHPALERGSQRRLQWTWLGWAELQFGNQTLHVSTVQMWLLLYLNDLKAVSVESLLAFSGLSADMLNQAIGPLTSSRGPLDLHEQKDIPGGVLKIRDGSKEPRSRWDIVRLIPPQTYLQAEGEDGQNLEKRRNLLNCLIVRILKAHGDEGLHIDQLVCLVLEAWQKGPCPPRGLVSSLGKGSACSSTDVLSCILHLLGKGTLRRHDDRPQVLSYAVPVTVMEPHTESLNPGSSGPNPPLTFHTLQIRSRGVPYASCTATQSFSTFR
UniProt P28482: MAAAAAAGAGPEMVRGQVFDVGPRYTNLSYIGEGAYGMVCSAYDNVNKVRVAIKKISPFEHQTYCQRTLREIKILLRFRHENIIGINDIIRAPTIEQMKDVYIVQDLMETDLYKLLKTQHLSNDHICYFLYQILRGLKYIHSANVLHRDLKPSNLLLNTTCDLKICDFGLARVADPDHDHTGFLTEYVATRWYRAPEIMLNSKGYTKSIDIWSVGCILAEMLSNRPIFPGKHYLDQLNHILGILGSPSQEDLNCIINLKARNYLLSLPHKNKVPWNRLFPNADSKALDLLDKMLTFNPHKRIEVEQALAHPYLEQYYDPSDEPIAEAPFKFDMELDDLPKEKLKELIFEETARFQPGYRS
UniProt P63208: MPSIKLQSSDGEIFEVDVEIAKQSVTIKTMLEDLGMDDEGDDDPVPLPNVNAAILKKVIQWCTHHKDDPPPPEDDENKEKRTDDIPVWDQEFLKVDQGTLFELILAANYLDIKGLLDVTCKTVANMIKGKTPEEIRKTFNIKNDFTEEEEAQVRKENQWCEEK

Assay [2] deals with cyclin D1 (endogenous) (human (endogenous in HCT 116 and T98G)) (UniProt P24385). Kind of assay: co-IP; lysate of exponentially growing HCT 116 cells precipitated with antibodies to cyclin D1 or IgG; blotted for cyclin D1, CDK4, SKP1, CUL1 and CUL7.
Assay [3] concerns the target HA-tagged ΔD cyclin D1 (complete deletion of the D-domain) (human) (UniProt P24385). Kind of assay: co-IP; IP-IB after ectopic expression of Flag-tagged ERK2 with HA-tagged WT or ΔD cyclin D1 in HCT 116 cells; which tag was precipitated is not told.
Assay [4] addresses HA-tagged wild type cyclin D1 (human) (UniProt P24385). Described as above.
The target is the same in assay [5]. The assay is described as follows: co-IP; T98G cells transfected with V5- or Flag-tagged F-box proteins, HA-tagged cyclin D1 (WT or T286A) and CDK4; collected after 24 hrs; precipitated with HA antibody; blotted with V5 or Flag.
In assay [6] the target is HA-tagged cyclin D1 T286A mutant (human) (UniProt P24385). Described as above.

Results are given in words; binding and its absence hold for the method and conditions named. Binding seen in cells or lysates may run through a third protein. Some entries that bind do so weakly or less than the wild type. For some assays here: Where a sequence is shown, tags or fusion partners need not be part of it.

As for “Cullin 7 (CUL7), endogenous (from UniProt Q14999 1-1698)”, the binding entry in assay [1] and in assay [2] was “binds” throughout.
In the case of “Flag-tagged ERK2 (from UniProt P28482 1-360) (enzyme)”, the binding result was “binds weakly” in assay [3] and “binds” in assay [4].
Turning to “S-phase Kinase-associated Protein 1 (SKP1), endogenous (from UniProt P63208 1-163)”, the binding entry in assay [1] and in assay [2] was “binds” each time.

B1: V5-tagged FBXL12 (protein, UniProt Q9NXK8 1-326)
chain: MATLVELPDSVLLEIFSYLPVRDRIRISRVCHRWKRLVDDRWLWRHVDLTLYTMRPKVMWHLLRRYMASRLHSLRMGGYLFSGSQAPQLSPALLRALGQKCPNLKRLCLHVADLSMVPITSLPSTLRTLELHSCEISMAWLHKQQDPTVLPLLECIVLDRVPAFRDEHLQGLTRFRALRSLVLGGTYRVTETGLDAGLQELSYLQRLEVLGCTLSADSTLLAISRHLRDVRKIRLTVRGLSAPGLAVLEGMPALESLCLQGPLVTPEMPSPTEILSSCLTMPKLRVLELQGLGWEGQEAEKILCKGLPHCMVIVRACPKESMDWWM
Turning to B1, the binding entry in assay [5] and in assay [6] was “binds” throughout.

Values taken from publication PMC1762433.
